Among the data in article PMC4836274 are binding values, retold here.

By UniProt entry, the sequences of proteins in these tests, tags left out. Where a name states a change or a piece, a line headed by the entry shows the natural chain unless it says otherwise. Residues count along the entry.
UniProt Q92673: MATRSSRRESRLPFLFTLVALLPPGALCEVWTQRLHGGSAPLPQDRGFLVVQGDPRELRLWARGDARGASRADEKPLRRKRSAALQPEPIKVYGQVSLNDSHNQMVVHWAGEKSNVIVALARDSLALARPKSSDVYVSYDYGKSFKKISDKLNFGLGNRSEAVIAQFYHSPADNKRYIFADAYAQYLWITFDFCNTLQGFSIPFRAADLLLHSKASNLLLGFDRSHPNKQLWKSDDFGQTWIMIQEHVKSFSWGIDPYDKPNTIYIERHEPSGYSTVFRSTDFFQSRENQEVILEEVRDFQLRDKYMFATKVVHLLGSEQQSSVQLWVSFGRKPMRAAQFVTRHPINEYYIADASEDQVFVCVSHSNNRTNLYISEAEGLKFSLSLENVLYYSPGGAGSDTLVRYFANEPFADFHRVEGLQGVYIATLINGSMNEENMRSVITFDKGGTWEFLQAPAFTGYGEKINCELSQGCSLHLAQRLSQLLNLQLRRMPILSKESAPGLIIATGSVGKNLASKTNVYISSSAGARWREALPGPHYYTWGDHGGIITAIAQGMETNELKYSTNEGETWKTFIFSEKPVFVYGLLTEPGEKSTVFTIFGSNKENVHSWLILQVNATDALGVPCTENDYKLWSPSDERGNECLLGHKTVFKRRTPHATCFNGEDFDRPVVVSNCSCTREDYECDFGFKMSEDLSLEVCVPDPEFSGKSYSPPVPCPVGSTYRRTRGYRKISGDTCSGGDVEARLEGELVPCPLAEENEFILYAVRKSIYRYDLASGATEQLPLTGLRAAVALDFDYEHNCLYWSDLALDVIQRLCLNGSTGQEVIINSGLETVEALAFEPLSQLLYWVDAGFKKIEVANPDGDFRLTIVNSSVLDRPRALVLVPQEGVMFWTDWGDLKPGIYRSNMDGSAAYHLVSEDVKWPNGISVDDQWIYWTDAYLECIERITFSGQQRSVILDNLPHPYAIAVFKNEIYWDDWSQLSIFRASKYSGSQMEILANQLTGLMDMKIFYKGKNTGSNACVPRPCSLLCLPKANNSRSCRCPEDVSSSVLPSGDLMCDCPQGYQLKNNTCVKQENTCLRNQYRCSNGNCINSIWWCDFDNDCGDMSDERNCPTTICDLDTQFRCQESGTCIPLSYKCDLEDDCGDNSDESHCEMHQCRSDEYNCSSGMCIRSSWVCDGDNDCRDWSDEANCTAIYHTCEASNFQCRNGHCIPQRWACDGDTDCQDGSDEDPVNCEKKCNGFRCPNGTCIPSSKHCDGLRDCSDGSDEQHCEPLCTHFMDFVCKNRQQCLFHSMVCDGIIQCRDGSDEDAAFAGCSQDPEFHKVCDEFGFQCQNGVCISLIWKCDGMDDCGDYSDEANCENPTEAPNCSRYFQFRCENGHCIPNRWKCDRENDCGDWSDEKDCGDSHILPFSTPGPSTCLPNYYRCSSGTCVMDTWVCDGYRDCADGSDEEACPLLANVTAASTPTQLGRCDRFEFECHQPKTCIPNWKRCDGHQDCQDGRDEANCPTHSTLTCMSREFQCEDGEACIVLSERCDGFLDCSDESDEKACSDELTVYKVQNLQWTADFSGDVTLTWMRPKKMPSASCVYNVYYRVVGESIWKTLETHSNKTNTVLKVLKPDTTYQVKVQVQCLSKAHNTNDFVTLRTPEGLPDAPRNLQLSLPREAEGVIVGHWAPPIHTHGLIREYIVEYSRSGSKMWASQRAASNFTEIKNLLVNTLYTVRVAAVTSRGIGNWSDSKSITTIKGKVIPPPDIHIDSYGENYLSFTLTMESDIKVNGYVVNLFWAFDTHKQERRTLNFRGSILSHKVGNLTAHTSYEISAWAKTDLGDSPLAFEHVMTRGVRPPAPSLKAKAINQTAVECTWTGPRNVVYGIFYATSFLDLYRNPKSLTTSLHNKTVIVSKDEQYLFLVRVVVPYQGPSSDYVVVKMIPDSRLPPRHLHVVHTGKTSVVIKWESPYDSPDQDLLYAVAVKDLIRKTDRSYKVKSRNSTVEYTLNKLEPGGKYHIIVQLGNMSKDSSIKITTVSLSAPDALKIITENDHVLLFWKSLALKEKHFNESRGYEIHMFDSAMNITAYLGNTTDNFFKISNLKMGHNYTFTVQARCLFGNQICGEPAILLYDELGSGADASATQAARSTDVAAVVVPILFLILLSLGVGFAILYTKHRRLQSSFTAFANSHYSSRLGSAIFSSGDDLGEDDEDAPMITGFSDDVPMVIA
soluble sorLA (entire luminal part of sorLA): residues 82-2137 of Q92673
UniProt P30533, residues 35-357: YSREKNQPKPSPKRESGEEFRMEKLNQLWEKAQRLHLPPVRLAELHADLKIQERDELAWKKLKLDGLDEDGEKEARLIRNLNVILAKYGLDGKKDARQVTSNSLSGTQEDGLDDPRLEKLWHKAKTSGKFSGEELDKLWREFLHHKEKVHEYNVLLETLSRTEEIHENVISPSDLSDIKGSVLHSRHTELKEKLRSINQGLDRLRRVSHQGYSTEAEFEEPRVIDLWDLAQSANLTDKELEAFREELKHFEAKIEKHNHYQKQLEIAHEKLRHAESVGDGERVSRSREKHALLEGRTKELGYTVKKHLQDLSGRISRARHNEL

The target in experiment [1] is T1, CNTFRα-Myc (human) (UniProt P26992).
T1 sequence: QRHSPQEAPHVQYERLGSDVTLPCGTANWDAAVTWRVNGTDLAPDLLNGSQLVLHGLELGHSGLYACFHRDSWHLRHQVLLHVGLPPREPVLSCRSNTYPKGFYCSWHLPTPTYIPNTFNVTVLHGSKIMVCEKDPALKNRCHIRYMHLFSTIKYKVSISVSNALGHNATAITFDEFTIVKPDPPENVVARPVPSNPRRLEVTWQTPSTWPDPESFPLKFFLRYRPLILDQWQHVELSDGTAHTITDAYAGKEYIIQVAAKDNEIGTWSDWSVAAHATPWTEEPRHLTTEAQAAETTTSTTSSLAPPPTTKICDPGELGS
The experiment in a line: cross-linking + co-IP; HEK293 double transfectants cross-linked with DSP, lysed in 1% Triton X-100, precipitated with anti-sorLA or anti-Myc, SDS-PAGE with and without DTT, immunoblot.

The target in experiment [2] is soluble sorLA (entire luminal part of sorLA) (human) (UniProt Q92673). Kind of experiment: SPR; immobilised sorLA preincubated with buffer or with 5 μM inhibitor (sorLA propeptide or RAP) before the ligand was added; both purified.

Results are given in words; binding and its absence hold for the method and conditions named. For some assays here: In cells and extracts the contact can be indirect. Some entries that bind do so weakly or less than the wild type. For some assays here: Tags and fused reporters may be left off the sequences shown.

“full-length sorLA in transfected HEK293 cells (from UniProt Q92673 82-2214) (receptor)”: in experiment [1], the binding entry was “binds”. Consider “receptor-associated protein (from UniProt P30533 35-357)”, for which, in experiment [2], the binding result is “binds”.
